Reference: article PMC5099689
No constants are given. Whether binding was seen depends on the method and setting. Binding seen in cells or lysates may run through a third protein.

The chains behind the UniProt entries cited, without tags or fusion partners. Residues count along the entry.
UniProt Q06749, residues 28-367: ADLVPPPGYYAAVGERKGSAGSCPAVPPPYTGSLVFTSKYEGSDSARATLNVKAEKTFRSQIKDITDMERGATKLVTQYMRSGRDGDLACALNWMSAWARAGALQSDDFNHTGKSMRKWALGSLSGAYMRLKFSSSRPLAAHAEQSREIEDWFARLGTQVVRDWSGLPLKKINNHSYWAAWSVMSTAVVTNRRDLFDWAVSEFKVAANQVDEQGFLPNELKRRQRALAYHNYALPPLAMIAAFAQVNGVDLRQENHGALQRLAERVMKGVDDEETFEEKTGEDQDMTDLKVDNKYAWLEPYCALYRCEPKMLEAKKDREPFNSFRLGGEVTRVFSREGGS
UniProt Q51371, residues 36-543: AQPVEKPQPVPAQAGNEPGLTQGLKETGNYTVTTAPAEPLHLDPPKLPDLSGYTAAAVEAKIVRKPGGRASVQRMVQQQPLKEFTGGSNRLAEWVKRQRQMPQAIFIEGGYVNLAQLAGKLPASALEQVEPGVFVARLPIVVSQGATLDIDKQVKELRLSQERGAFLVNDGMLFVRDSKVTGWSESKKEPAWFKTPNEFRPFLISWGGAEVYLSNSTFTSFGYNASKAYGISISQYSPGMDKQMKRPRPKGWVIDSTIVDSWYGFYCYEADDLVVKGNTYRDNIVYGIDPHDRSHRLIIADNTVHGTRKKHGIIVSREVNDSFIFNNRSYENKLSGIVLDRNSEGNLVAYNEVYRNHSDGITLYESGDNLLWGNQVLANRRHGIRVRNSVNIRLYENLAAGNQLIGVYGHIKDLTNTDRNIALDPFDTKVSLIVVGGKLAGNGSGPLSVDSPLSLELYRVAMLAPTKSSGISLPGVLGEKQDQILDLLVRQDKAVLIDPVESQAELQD

B1: Alg44 (protein, UniProt Q9HY69 1-389)
chain: MNTAVNVNVVHESEAQRQFARVKLPARIRYIGANREGVDARLLDLSAGGFAFTASGAPIQPGDLYKGKLLFQVDSISFSLEVEFQVRSVDPASRRVGCEFQNLKPREVAALRYLITSYLAGEVIGVGDMLNTLQRENFTKARKQGGGNGGMGFFGRVRAVTLSTAIFVVGVGAFAFILNQMYNLYFVTHADSGVVSVPNQQITMPREGTVQSLLGPNAEVAKGAPIATFSANLLDMLKGNLTEEQLNPGNIEKLFGHQMKGTLTSPCDCRVVQQLVADGQYANKGQVIFTLAPRDSVASIEARFPYRNAAELAPGTRVNFQVAGDGVNRSGRIVNTAPVDGDLSSEIRVQIQPDQPLDAQYAGRPAEVSIGGLPGRTLLNKAVTLATAR
B2: AlgK (protein, UniProt P96956 28-475)
chain: CAGLPDQRLAQEALERGDLATAQSNYQALAAMGYADAQVGLADMQVASGDSAQQAKAEKLYREAAQTSPRARARLGKWLAAKPGASDAEHREAERLLSQAFEQGEDSALVPLIVLYLQYPQSWPEIDPQQRIDQWRARGLPQADLAQIILYRTQGTYAQHLGEIEQVCQRWLRRMDVCWYELATVYQMQGNAEKQKVLLEQLRAAYKAGRVPGERVDSVAGVLADGELGQPDPQTAQALLEEIAPSYPAAWVSLAKLLYDYPDQGDLEKMLGYLKNAQDAAQPRAELLLGRLYYDGKWAPQDPRKAERHLLKAAASEPQANYYLGQIYRRGFLGKVYPQKAVDHLILAARAGQASADMALAQLWSQGRGIQPNRVNAYVFGQLAVQQQVPQASDLLGQIEAQLPPAERSQAQQLLKREQQSRGNNWQATVSLLQSQDSPINEEEPESL

molecular target: hexahistidine-tagged AlgL (P. aeruginosa) (UniProt Q06749); assay: pull-down; his-tagged AlgL purified from envelope fractions solubilized with 0.2% Triton X-100 (100 mM phosphate buffer, 150 mM NaCl, 5 mM imidazole, 5 mM EDTA, 10% glycerol) on cOmplete His-Tag Purification Resin, 1 h on ice, native conditions; four washes; eluted with 400 mM imidazole; eluted fractions immunoblotted with anti-Alg44, -AlgK, -AlgG, -AlgX; strains grown on PIA with 0.05% arabinose for 72 h at 37 °C

Row | Molecule | binding
1 | AlgG (from UniProt Q51371 36-543) (enzyme) | no binding
2 | B1 | no binding
3 | B2 | no binding
